# No constants are given. Whether binding was seen depends on the method and setting. Binding calls can cover weak binding; strength is not graded here.
# By UniProt entry, the sequences of proteins in these tests, tags left out. Where a name states a change or a piece, a line headed by the entry shows the natural chain unless it says otherwise.
# UniProt P50616: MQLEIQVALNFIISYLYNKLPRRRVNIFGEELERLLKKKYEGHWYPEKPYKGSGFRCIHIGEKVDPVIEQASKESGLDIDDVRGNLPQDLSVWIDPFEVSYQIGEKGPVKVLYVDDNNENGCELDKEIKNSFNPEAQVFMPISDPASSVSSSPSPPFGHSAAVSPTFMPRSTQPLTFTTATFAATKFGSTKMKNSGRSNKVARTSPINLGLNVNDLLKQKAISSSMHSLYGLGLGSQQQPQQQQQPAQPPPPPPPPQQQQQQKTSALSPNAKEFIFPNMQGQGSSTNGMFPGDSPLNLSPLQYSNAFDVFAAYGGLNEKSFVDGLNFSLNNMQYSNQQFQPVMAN
# UniProt Q9UIV1: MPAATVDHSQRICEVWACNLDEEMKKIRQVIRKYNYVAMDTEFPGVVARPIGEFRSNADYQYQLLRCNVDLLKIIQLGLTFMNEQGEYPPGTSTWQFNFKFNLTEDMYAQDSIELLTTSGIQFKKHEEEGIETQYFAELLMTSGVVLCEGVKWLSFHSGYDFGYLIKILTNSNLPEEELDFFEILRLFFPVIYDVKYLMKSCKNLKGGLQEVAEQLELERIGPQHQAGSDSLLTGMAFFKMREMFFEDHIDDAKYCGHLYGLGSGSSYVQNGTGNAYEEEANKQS
# UniProt Q9UFF9: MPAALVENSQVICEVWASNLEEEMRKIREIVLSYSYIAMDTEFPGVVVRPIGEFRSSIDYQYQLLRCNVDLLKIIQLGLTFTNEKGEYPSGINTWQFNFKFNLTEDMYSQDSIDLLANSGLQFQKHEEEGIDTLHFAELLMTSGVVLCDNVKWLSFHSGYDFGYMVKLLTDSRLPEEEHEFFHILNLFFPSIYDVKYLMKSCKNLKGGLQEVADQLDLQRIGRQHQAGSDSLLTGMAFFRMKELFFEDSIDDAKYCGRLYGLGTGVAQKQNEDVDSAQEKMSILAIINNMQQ
# Target: Gal4-DNA binding domain-TOB1 H45A (human) (UniProt P50616)
# Test: two-hybrid; yeast strain YRG-2; BTG2 or TOB1 fused to the GAL4 DNA-binding domain, Caf1a or Caf1b fused to the GAL4 activation domain; LacZ reporter under five GAL4 consensus sequences; β-galactosidase activity (Beta-GLO) normalised to OD600; triplicate
row,Substance,binding
1,Gal4AD-Caf1a (from UniProt Q9UIV1 1-285) (enzyme),binds
2,Gal4AD-Caf1b (from UniProt Q9UFF9 1-292) (enzyme),binds
